# Reference: article PMC12167799, “The role of human Shu complex in ATP-dependent regulation of RAD51 filaments during homologous recombination–associated DNA damage response” (The Journal of Biological Chemistry, 2025)
# Tested on: SWSAP1 (hSWS1-SWSAP1, WT) + hSWS1
# Experiment: fluorescence polarization
# Conditions: FPA: 5 nM 6-FAM DNA, 37 C, recombinant protein, protein details: N-terminal 6xHis-TEV, cleaved,none, label: 3' 6-FAM on strand 1
Sequence,binding result (2 mM ADP),binding result (2 mM ATP)
TTTTTTTTTTTTTTTTTTTTCTTGACAAGCTTGCGCACT (double strand) [ds39],no binding,no binding
CTTGACAAGCTTGCGCACT / AGTGCGCAAGCTTGTCAAGGCACTTTTTTTTTTTTTTTT [3'-overhang],no binding,no binding

# The exact form of at least one protein or probe is not confirmed. A negative result means that nothing was seen under these conditions.
